PubChem BioAssay AID1259308, NCATS, 2017
This is a random part of about 59,000 deposited reagents. In the full data, about 1,510 (2.6%) got an active call. 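Calls use total luciferase alone and ignore viability, so some active siRNAs may act by altering cell number.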 Entries without a mark were called inactive. The numbers tell different reagents against one gene apart. No sequences are given here.

Test: 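Genes whose loss raises luciferase production in HEK293 cells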 (primary screen)
Cell system: human HEK293 embryonic kidney cells stably expressing firefly luciferase (HEK-CMV-Luc2-Hygro)
Knock-down reagent: single siRNA against human genes, 0.8 pmol siRNA per well
Duration: 72 h
Read-out: 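Reporter luminescence and viable-cell signal on separate replicate plates, given as percent of non-targeting control and median/MAD z-scores, plus per-cell luciferase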
Reading the numbers: total luciferase, z-score and total luciferase, % of control: higher = more reporter protein produced; luciferase per cell, z-score: higher = more reporter output per viable cell; viable cells, % of control: higher = more viable cells
Hit rule: 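Active when the median/MAD z-score for overall luciferase is greater than 3; a gene was taken forward for validation with new siRNAs if at least two of its three siRNAs passed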
Meaning of the calls: active = raised luciferase; inactive = no rise

Target gene | siRNA no. | total luciferase, z-score | total luciferase, % of control | luciferase per cell, z-score | viable cells, % of control
C15orf62 (chromosome 15 open reading frame 62) | 1 | 0.47 | 91.2 | 0.303 | 94.1
C15orf62 (chromosome 15 open reading frame 62) | 2 | 0.176 | 85.4 | -0.0765 | 97.4
C15orf62 (chromosome 15 open reading frame 62) | 3 | 0.97 | 101 | 1.1 | 84.6
CEP192P1 (CEP192 pseudogene 1) | 1 | 0.924 | 100 | 0.138 | 108
CEP192P1 (CEP192 pseudogene 1) | 2 | -1.22 | 57.6 | -1.37 | 92.3
CEP192P1 (CEP192 pseudogene 1) | 3 | -0.0502 | 80.9 | 0.113 | 87.7
FAM124A (family with sequence similarity 124 member A) | 1 | -0.306 | 75.8 | -0.295 | 91.5
FAM124A (family with sequence similarity 124 member A) | 2 | -0.3 | 75.9 | -0.0751 | 86.5
FAM124A (family with sequence similarity 124 member A) | 3 | 0.489 | 91.6 | 0.0174 | 102
SPEN-AS1 (SPEN antisense RNA 1) | 1 | 1.01 | 102 | 1.04 | 86.7
SPEN-AS1 (SPEN antisense RNA 1) | 2 | 0.714 | 96.1 | 0.784 | 87.3
SPEN-AS1 (SPEN antisense RNA 1) | 3 | -0.262 | 76.7 | 0.0146 | 85.3
SPEN-AS1 (SPEN antisense RNA 1) | 4 | -0.609 | 69.8 | -0.68 | 93.3
SPEN-AS1 (SPEN antisense RNA 1) | 5 | -1.73 | 47.5 | 0.603 | 45.3
SPEN-AS1 (SPEN antisense RNA 1) | 6 | 0.336 | 88.6 | 0.284 | 91.9
ZNF575 (zinc finger protein 575) | 1 | -0.275 | 76.4 | 0.909 | 67.2
ZNF575 (zinc finger protein 575) | 2 | 0.492 | 91.7 | -0.18 | 107
ZNF575 (zinc finger protein 575) | 3 | -0.386 | 74.2 | -1.13 | 112
OPLAH (5-oxoprolinase, ATP-hydrolysing) | 1 | -0.634 | 69.3 | -1.26 | 108
OPLAH (5-oxoprolinase, ATP-hydrolysing) | 2 | 0.504 | 91.9 | 0.405 | 92.3
OPLAH (5-oxoprolinase, ATP-hydrolysing) | 3 | 0.291 | 87.7 | 0.418 | 87.8
PDE4D (phosphodiesterase 4D) | 1 | -0.266 | 76.6 | -0.723 | 104
PDE4D (phosphodiesterase 4D) | 2 | -0.0607 | 80.7 | 0.507 | 78.9
PDE4D (phosphodiesterase 4D) | 3 | -0.918 | 63.6 | -1.46 | 104
PDE4D (phosphodiesterase 4D) | 4 | 0.456 | 90.9 | 0.295 | 94
PDE4D (phosphodiesterase 4D) | 5 | 0.111 | 84.1 | 1.1 | 70.3
PDE4D (phosphodiesterase 4D) | 6 | 0.405 | 89.9 | -0.213 | 106
PDE4D (phosphodiesterase 4D) | 7 | -0.0435 | 81 | -0.109 | 93.2
PDE4D (phosphodiesterase 4D) | 8 | -1.4 | 54 | -1.42 | 87.7
PDE4D (phosphodiesterase 4D) | 9 | 0.157 | 85 | -1.05 | 125
